Measurements reported in PubChem BioAssay AID652243 (Drosophila RNAi Screening Center, 2013).
In all, the deposit lists about 24,000 reagents; below is a random part of those with a known target gene and a result. In the full data, 246 (1%) got an active call. 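Plates not normalised; calls are printed but the firefly/Renilla ratio behind them is not deposited; fold cut for lowering reported inconsistently.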 Raw values are not corrected between plates. The record does not give: the amount of reagent.

- Assay: 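Fly regulators of androgen-dependent reporter output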 (primary screen)
- Cells: Drosophila S2R+ cells
- Knock-down reagent: long dsRNA against Drosophila genes
- Duration: 72 h (48 h, then 24 h hormone)
- Conditions: synthetic androgen R1881 at 10 nM for 24 h
- Detection: 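Per-well raw luminescence of the androgen-driven firefly reporter and of the Renilla control, two replicates each, without normalisation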
- Direction: firefly reporter light: higher = more light from androgen-responsive reporter; Renilla control light: higher = more constitutive control signal (cell number, transfection)
- Call rule: 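Hit when the log firefly-to-Renilla ratio dropped or increased by a fixed fold versus the mean of GFP or LacZ controls across duplicate plates; lowering cut given as 1.5 and as 3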
- Calls: active = hit: reporter lowered or raised; inactive = no hit

no.	Gene	DRSC id	firefly reporter light, replicate 1	firefly reporter light, replicate 2	Renilla control light, replicate 1	Renilla control light, replicate 2	Outcome
1	CG11601 (GeneID 33197)	DRSC00318	64615	61089	4.08e5	5.76e5	inactive
2	CG13671 (GeneID 38932)	DRSC10030	9.42e5	1.08e6	9.01e5	1.43e6	inactive
3	Coq8 (GeneID 32239)	DRSC19900	5.39e5	4.60e5	3.40e6	2.78e6	inactive
4	Coq8 (GeneID 32239)	DRSC36989					inactive
5	CG40948 (retired record) (GeneID 5740550)	DRSC38773	1.05e6	9.12e5	2.57e6	2.13e6	inactive
6	tok (GeneID 42944)	DRSC17087	56207	75921	4.83e5	4.79e5	inactive
7	tok (GeneID 42944)	DRSC39140	5.02e5	7.19e5	1.36e6	1.57e6	inactive
8	Zyx (GeneID 317824)	DRSC17186	1.11e6	8.48e5	1.94e6	9.12e5	inactive
9	CG8675 (GeneID 32716)	DRSC20117	1.59e5	1.02e5	9.57e5	7.35e5	inactive
10	CG8675 (GeneID 32716)	DRSC27658	4.34e5	4.66e5	4.68e5	9.81e5	inactive
11	Mis12 (GeneID 38762)	DRSC10299	1.41e5	1.70e5	1.97e6	1.86e6	inactive
12	CG17575 (GeneID 36414)	DRSC06682	3.23e5	3.02e5	2.31e6	2.29e6	inactive
13	CG17575 (GeneID 36414)	DRSC26534	2.08e5	2.01e5	3.45e5	4.23e5	inactive
14	dj-1beta (GeneID 43652)	DRSC14599	2.18e5	2.33e5	2.31e6	2.87e6	inactive
15	dj-1beta (GeneID 43652)	DRSC25743	5.36e5	4.26e5	5.38e5	5.80e5	inactive
16	CG31286 (GeneID 318662)	DRSC26727	2.64e5	2.48e5	8.13e5	7.60e5	inactive
17	Nos (GeneID 34495)	DRSC03381	7.39e5	6.33e5	2.48e6	1.82e6	inactive
18	Nop17l (GeneID 35730)	DRSC06556	1.16e6	7.31e5	1.61e6	7.16e5	inactive
19	Nop17l (GeneID 35730)	DRSC29430	3.97e5	4.59e5	1.57e6	1.57e6	inactive
20	CG34109 (GeneID 4379890)	DRSC02169	1.41e5	1.15e5	1.03e6	8.98e5	inactive
21	CG34109 (GeneID 4379890)	DRSC02224	1.32e5	1.65e5	8.39e5	1.12e6	inactive
22	CG34109 (GeneID 4379890)	DRSC02225	1.76e5	1.74e5	1.28e6	1.21e6	inactive
23	CG34109 (GeneID 4379890)	DRSC26977	3.76e5	3.32e5	6.42e5	5.59e5	inactive
24	CG34109 (GeneID 4379890)	DRSC30104	7.85e5	8.87e5	1.32e6	1.26e6	inactive
25	Spn43Ad (GeneID 35639)	DRSC06770	3.03e5	2.74e5	1.73e6	9.30e5	inactive
26	Gr98a (GeneID 43305)	DRSC14719	4.85e5	5.20e5	2.10e6	3.50e6	inactive
27	CG5986 (GeneID 192506)	DRSC15931	57124	62093	5.44e5	5.24e5	inactive
28	CG5986 (GeneID 192506)	DRSC24247	6.42e5	5.92e5	5.22e5	7.30e5	inactive
29	CG31883 (GeneID 326169)	DRSC02561	1.42e6	1.13e6	3.29e6	2.52e6	inactive
30	CG14339 (GeneID 33286)	DRSC00369	74421	73120	7.28e5	6.61e5	inactive
31	CG14339 (GeneID 33286)	DRSC26560	3.10e5	3.29e5	5.89e5	4.82e5	inactive
32	CG7910 (GeneID 40956)	DRSC16341	1.34e5	1.08e5	2.68e6	2.40e6	inactive
33	aln (GeneID 2768997)	DRSC08240	50461	56567	6.62e5	6.89e5	inactive
34	Vha16-5 (GeneID 34482)	DRSC02986	2.27e5	2.53e5	1.45e6	1.09e6	inactive
35	lectin-21Cb (GeneID 33242)	DRSC00355	1.37e5	1.44e5	1.13e6	1.11e6	inactive
36	Nep7 (GeneID 43356)	DRSC15830	1.38e5	81672	1.87e6	2.29e6	inactive
37	Nep7 (GeneID 43356)	DRSC26582	3.19e5	3.04e5	6.62e5	6.09e5	inactive
38	CG14294 (GeneID 42262)	DRSC14774	3.57e5	2.38e5	4.90e6	3.13e6	inactive
39	Dnaaf6 (GeneID 39598)	DRSC10473	1.58e5	1.77e5	2.00e6	2.36e6	inactive
40	CG15412 (GeneID 33553)	DRSC00427	1.11e5	91051	8.16e5	9.61e5	inactive

Just “firefly reporter light, replicate 1” (5 entries from above):
dj-1beta (GeneID 43652) [DRSC14599] = 2.18e5
dj-1beta (GeneID 43652) [DRSC25743] = 5.36e5
CG31286 (GeneID 318662) [DRSC26727] = 2.64e5
Nos (GeneID 34495) [DRSC03381] = 7.39e5
Nop17l (GeneID 35730) [DRSC06556] = 1.16e6
